# PubChem BioAssay AID1487 (National Center for Advancing Translational Sciences (NCATS), 2009)
# The other results are listed elsewhere or left out. The main result of the screen is listed elsewhere. These columns were measured beside it and carry no call. Most of these compounds were active or inconclusive in the main read-out, so they are no random draw. Potencies come from curve fits of mixed quality, noted in brackets.
# Experiment: qHTS Assay for Modulators of Lamin A Splicing
# Conditions: HeLa LMNA splicing GFP/RFP minigene ratio, 48 h
# Method in brief: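 S3 HeLa stable clones carrying a lamin A-EGFP splicing minigene plus DsRed2 were seeded at 600 cells/well in Opti-MEM with 2% FBS, pin-dosed and incubated 48 h at 37°C. Acumen cytometry (488 nm) gave the GFP/RFP total-intensity ratio.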
# [1] = measured here: RFP viability control channel
# [2] = measured here: GFP splicing reporter channel
SMILES,AC50 [1],AC50 [2]
Cc1ccc(-n2c(SCC(=O)NCC3CCCO3)nc3n[nH]c(C)c3c2=N)cc1Cl (stereo not given),"12.6 µM [rising, single point]",
COc1ccc(NC(=O)CSc2nccn2Cc2ccco2)c(OC)c1,"10 µM [falling, partial curve, poor fit]",
CCOC(=O)c1cc(-c2ccc(OC)cc2)n(CCC(=O)Nc2nc3ccc(OCC)cc3s2)c1C,"10 µM [falling, partial curve]",
CCOC(=O)c1c(C)sc(-c2c(-c3ccc(OC)c(F)c3)[nH]c3[nH]c(=O)[nH]c(=O)c23)c1O,,"0.282 µM [rising, full curve, poor fit]"
CCN(CC)C(=O)CSc1nc(-c2ccccc2)ccc1C#N,"35.5 µM [falling, single point]",
Cc1cc(N/N=C/c2ccc(O)c(C)c2O)nc(-c2ccccc2O)n1,"14.1 µM [rising, partial curve]",
Cc1cccc(C)c1NC(=O)CC(NCCc1ccccc1)C(=O)O (stereo not given),"6.31 µM [rising, full curve, poor fit]","5.01 µM [rising, full curve, poor fit]"
Cc1cc(=O)[nH]c2ccc(Cl)cc12,"11.2 µM [falling, partial curve, poor fit]",
Cc1ccc(S(=O)(=O)Nc2ccc(Cl)cc2)cc1NC(=O)Cn1cnc2c1c(=O)n(C)c(=O)n2C,"7.94 µM [rising, partial curve, poor fit]",
COc1ccccc1CN1CCC(CNC(=O)c2cnn(-c3ccc(Cl)cc3)c2C2CCN(C(=O)OC(C)(C)C)CC2)CC1,"15.8 µM [falling, partial curve]","15.8 µM [falling, partial curve]"
O=C(NN1C(=O)C2C(C1=O)C1C=CC2C12CC2)c1ccncc1 (stereo not given),"6.31 µM [falling, single point]","6.31 µM [falling, single point]"
COC(=O)c1oc2ccccc2c1NC(=O)CN1CCCC1,"0.0708 µM [rising, full curve, poor fit]","0.0708 µM [rising, full curve, poor fit]"
Cc1ccc(Cn2ccc(NC(=O)c3nn(C)cc3[N+](=O)[O-])n2)cc1,"5.01 µM [rising, partial curve, poor fit]",
Cc1ccc(N=Nc2c(C)[nH][nH]c2=O)c(C)c1,"12.6 µM [falling, partial curve]","11.2 µM [falling, single point]"
O=C(N/N=C/c1ccc([N+](=O)[O-])s1)c1cccc(Br)c1,"35.5 µM [falling, single point]","14.1 µM [falling, single point]"
COc1ccc(CCN2C(=O)c3[nH]nc(-c4ccccc4O)c3C2c2ccccc2)cc1OC (stereo not given),"15.8 µM [rising, single point]","12.6 µM [rising, single point]"
CN1C(=O)OC(C)(C)C1=O,"14.1 µM [falling, single point]","14.1 µM [falling, single point]"
CCN(Cc1ccccc1)C(=O)c1sc2nc3n(c(=O)c2c1C)CCCC3,"0.708 µM [falling, partial curve, poor fit]","0.224 µM [falling, full curve]"
COc1ccc(C2(CNC(=O)c3ccc(OC)c([N+](=O)[O-])c3)CCCCC2)cc1OC,"12.6 µM [rising, partial curve]",
Cc1ccc(Nc2nnc(SCC3CCCCO3)s2)cc1 (stereo not given),"10 µM [rising, partial curve, poor fit]",
CC1CCc2cc(F)ccc2N1C(=O)CSc1nnc2c(n1)[nH]c1ccccc12 (stereo not given),"31.6 µM [rising, single point]","10 µM [rising, single point]"
Cc1ccc2nc(NC(=O)C3CCN(S(=O)(=O)c4cccnc4)CC3)sc2c1,"15.8 µM [rising, single point]",
CCOCCCN(Cc1ccco1)C(=O)c1cc2c(=O)[nH]c3ccc(C)cc3c2s1,,"20 µM [rising, single point]"
N#Cc1ccc(N2Cc3ccccc3C2=NC(=O)c2cccnc2Cl)cc1,,"0.00447 µM [falling, full curve, poor fit]"
CCOC(=O)c1sc2nc[nH]c(=O)c2c1C,"35.5 µM [rising, single point]",
Cc1cccc(Oc2ccc(C(=O)NC3CCSC3=O)cn2)c1C (stereo not given),"35.5 µM [rising, single point]","35.5 µM [rising, single point]"
CC(C)C(C)(C#N)NC(=O)CSc1nc2scc(-c3ccccc3)c2c(=O)[nH]1 (stereo not given),,"11.2 µM [rising, single point]"
Cc1ccc(Cl)cc1N1CCN(C(=O)CN2C(=O)CSc3c2c(C)nn3-c2ccccc2)CC1,,"4.47 µM [falling, partial curve]"

SMILES,AC50 [1],AC50 [2]
O=C(CSc1ccc2c(c1)OCCO2)Nc1ccc2c(c1)OCO2,"35.5 µM [rising, single point]",
COc1cccc(NC(=O)c2cnc(SCC(=O)N3CCOCC3)n(C)c2=O)c1,"35.5 µM [falling, single point]","15.8 µM [falling, single point]"
CNC(=S)N/N=C/c1cn(CCOc2cccc(OC)c2)c2ccccc12,"14.1 µM [rising, single point]","12.6 µM [rising, single point]"
COc1ccc(NC(=S)Nc2nc(CC(=O)Nc3ccccc3OC)cs2)cc1,"22.4 µM [rising, single point]","15.8 µM [rising, single point]"
COCCCNC(=O)c1ccc(Cn2c(SCc3cccc(C)c3)nc3cccnc32)cc1,,"0.00178 µM [falling, full curve]"
Cc1ccc(C)c(N2CCN(C(=O)c3cc(S(=O)(=O)N4CCCCCC4)cn3C)CC2)c1,"14.1 µM [rising, single point]",
Cc1ccc(O)c(C(=O)c2cnc3c(c2)COc2ccccc2-3)c1,"22.4 µM [rising, single point]",
O=C(NCCc1nc(-c2ccccc2)cs1)c1ccc(Br)cc1,"22.4 µM [rising, single point]",
Cc1ccc2c(c1)cc(CN(Cc1ccco1)S(=O)(=O)c1ccccc1)c1nnnn12,"5.62 µM [rising, single point]",
O=C(NCc1ccccc1)/C(=C/c1ccc(OC(F)F)cc1)c1ccccc1,"22.4 µM [rising, single point]",
CC(=O)CCCCn1c(=O)c2c(ncn2C)n(C)c1=O,"5.62 µM [falling, single point]",
Cc1cc(C)n(CC(O)COc2c(C)cccc2C)n1 (stereo not given),"0.316 µM [falling, full curve, poor fit]","0.126 µM [falling, single point]"
C/C(=N\OCC(=O)Nc1ccc(Br)cc1)c1cccs1,,"2.82 µM [rising, partial curve]"
O=C(NCc1ccc2c(c1)OCO2)c1ccc(CSCc2ccc(Cl)cc2)o1,"15.8 µM [rising, partial curve]",
O=C(Nc1ccc(F)cc1)N1CCN(C(=O)c2nsc3ccccc23)CC1,"0.794 µM [rising, full curve, poor fit]","0.794 µM [rising, full curve]"
O=C1C(=O)c2ccc(-c3ccccc3)cc2-c2ccccc21,"5.62 µM [falling, single point]","5.62 µM [falling, single point]"
CCOC(=O)CSc1nnc2n(C3CCCCC3)c(=O)c3c4c(sc3n12)CCCC4,"4.47 µM [rising, single point]","5.62 µM [rising, single point]"
COc1ccc(NC(=O)COC(=O)c2ccc(S(=O)(=O)N(C)c3ccccc3OC)cc2)c(OC)c1,"5.62 µM [rising, partial curve, poor fit]",
O=C(NC1CCCC1)C(c1ccncc1)N(Cc1ccco1)C(=O)c1ccc(-c2ccccc2)[nH]1 (stereo not given),"11.2 µM [falling, partial curve]",
COc1ccccc1CNC(=O)CN1C(=O)C(C)N(c2ccc(C)cc2)C1=O (stereo not given),"3.55 µM [rising, partial curve]",
COc1ccc(-n2ncc(C(=O)N3CCOCC3)c2C2CCN(C(=O)OC(C)(C)C)CC2)cc1,"0.251 µM [falling, full curve, poor fit]",
Cc1ccc(Oc2c(C(N)=O)cc([N+](=O)[O-])cc2[N+](=O)[O-])cc1,"22.4 µM [falling, single point]","35.5 µM [falling, single point]"
CCN(C(=O)COC(=O)c1ccccc1Nc1cccc(C)c1C)C1CCS(=O)(=O)C1 (stereo not given),"25.1 µM [falling, single point]",
Cc1ccc2cccc(Oc3ncnc4scc(-c5ccc(Cl)cc5)c34)c2n1,"22.4 µM [rising, single point]",
O=C(c1ccccc1[N+](=O)[O-])N1CCN(Cc2ccc3c(c2)OCO3)CC1,"0.0891 µM [rising, full curve]",
O=C(/C=C/c1ccccc1Cl)Nn1cnc2ccccc2c1=O,"0.00891 µM [rising, full curve, poor fit]",
O=C(CSc1ncccc1-c1nc2ccccc2[nH]1)NCc1ccco1,"4.47 µM [falling, partial curve, poor fit]","5.62 µM [falling, single point]"

# One compound at a time, as listed above.
# COc1cccc(NC(=O)c2cnc(SCC(=O)N3CCOCC3)n(C)c2=O)c1 in the list: AC50 [1]: 35.5 µM [falling, single point]; AC50 [2]: 15.8 µM [falling, single point]
# Cc1ccc(Oc2c(C(N)=O)cc([N+](=O)[O-])cc2[N+](=O)[O-])cc1 in the list: AC50 [1]: 22.4 µM [falling, single point]; AC50 [2]: 35.5 µM [falling, single point]
# CCOC(=O)CSc1nnc2n(C3CCCCC3)c(=O)c3c4c(sc3n12)CCCC4 in the list: AC50 [1]: 4.47 µM [rising, single point]; AC50 [2]: 5.62 µM [rising, single point]
